# According to US11780815B2, “DNA2 inhibitors for cancer treatment” (City of Hope, priority 2016, dated 2023):
# For at least one compound, name, drawing or mass did not settle the structure.
# Test system: BRCA2- or BOD1L-depleted or mock transfected U2OS cells
# Assay: P-RPA foci in fork protection defective cells after HU
# Type: cell-based, human
# Source text: Fork protection is a DNA break repair-independent pathway suppressing genomic instability (Schlacher et al, 2011; Schlacher et al, 2012). The fork protection pathway is mediated by BRCA2, BRCA1, RAD51, members of the Fanconi anemia pathway, and […]. In the absence of any of these factors, excessive nascent DNA degradation occurs at stalled replication forks. This degradation is prevented if the end-resection protein MRE11 is inhibited either by siRNA knockdown or by inhibition of MRE11 nuclease by the small molecule mirin (Schlacher et al., 2011; Schlacher et al., 2012). MRE11 functions upstream of DNA2 in resection of double-strand breaks, and DNA2, in addition to MRE11 has been implicated in over-resection at stalled replication forks in BOD1L and in RAD51 impaired cells, since over-resection is suppressed by knockdown of DNA2 in the absence of BOD1L or in a RAD51 mutant cell line (Higgs et al., 2015; Wang et al., 2015). […] . After treatment of the BRCA2- or BOD1L-depleted U2OS cells with HU, which stalls forks but is not expected to produce DSBs (Petermann et al., 2010; Schlacher et al., 2011; Schlacher et al., 2012), and which are fork protection defective, we observed a dramatic increase in P-RPA positive cells indicative of nascent DNA degradation upon treatment with HU (FIGS. 6C and FIG. 12B). […] . […]
compound,measurement,setting,value
"N=C1NC(=O)/C(=C/c2ccc(O)cc2)S1 [mirin, reference compound]",nascent DNA degradation (P-RPA positive cells),"BRCA2- or BOD1L-depleted U2OS cells, HU, 50 μM mirin",reducing this degradation
same,number of P-RPA positive cells,"mock-depleted cells, absence of HU",neither mirin nor C5 significantly decreased
